The supplement of paper PMC10849652
Some of the results follow.

Amino acid sequences for entries named in this document (tags omitted). A change or cut given only in a name is not applied to a line headed by its entry.
UniProt Q9NQW7: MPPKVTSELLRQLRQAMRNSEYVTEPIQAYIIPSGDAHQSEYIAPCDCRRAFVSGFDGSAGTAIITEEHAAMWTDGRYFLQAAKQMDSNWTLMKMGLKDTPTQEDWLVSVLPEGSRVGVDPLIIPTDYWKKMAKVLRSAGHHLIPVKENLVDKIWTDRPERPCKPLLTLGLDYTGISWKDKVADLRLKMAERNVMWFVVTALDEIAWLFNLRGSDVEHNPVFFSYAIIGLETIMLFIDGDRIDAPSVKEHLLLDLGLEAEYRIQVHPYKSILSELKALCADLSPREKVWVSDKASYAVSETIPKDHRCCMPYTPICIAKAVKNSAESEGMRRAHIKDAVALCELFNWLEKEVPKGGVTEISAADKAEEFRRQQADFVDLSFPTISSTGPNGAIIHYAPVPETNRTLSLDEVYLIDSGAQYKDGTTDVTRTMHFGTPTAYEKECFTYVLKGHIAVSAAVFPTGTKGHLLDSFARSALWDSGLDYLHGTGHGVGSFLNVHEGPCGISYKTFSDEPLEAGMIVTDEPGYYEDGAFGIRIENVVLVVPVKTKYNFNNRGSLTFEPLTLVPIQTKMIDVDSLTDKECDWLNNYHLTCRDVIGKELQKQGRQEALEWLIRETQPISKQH
UniProt Q8TBZ3: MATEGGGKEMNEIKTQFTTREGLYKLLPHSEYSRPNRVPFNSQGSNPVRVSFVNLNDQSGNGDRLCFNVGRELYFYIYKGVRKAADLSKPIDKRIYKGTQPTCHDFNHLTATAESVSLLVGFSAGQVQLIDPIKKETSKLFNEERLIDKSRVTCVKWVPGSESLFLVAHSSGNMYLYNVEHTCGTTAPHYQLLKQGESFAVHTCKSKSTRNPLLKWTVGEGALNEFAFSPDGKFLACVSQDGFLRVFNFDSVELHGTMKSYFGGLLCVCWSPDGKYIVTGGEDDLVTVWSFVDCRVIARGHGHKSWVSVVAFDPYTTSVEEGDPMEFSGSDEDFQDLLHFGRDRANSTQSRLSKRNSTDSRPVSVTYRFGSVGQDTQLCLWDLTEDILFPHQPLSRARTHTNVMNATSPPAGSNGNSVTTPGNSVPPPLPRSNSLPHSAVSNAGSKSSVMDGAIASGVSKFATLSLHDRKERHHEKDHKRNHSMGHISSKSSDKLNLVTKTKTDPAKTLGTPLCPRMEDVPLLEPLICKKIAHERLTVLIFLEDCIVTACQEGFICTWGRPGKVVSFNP
UniProt O00401, whole entry, looked up: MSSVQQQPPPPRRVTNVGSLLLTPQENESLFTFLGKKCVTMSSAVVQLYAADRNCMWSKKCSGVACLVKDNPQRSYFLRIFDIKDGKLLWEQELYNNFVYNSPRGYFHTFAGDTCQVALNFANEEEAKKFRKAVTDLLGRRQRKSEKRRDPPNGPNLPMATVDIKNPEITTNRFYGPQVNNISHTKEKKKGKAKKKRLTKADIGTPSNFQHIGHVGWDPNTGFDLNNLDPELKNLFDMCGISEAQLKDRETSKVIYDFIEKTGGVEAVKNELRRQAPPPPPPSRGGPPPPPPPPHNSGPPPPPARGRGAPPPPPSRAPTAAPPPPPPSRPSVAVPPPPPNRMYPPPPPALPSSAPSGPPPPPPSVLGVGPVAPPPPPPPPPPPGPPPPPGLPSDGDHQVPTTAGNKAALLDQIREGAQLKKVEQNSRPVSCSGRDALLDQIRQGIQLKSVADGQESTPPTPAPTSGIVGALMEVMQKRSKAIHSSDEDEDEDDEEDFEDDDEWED
UniProt Q8TF74: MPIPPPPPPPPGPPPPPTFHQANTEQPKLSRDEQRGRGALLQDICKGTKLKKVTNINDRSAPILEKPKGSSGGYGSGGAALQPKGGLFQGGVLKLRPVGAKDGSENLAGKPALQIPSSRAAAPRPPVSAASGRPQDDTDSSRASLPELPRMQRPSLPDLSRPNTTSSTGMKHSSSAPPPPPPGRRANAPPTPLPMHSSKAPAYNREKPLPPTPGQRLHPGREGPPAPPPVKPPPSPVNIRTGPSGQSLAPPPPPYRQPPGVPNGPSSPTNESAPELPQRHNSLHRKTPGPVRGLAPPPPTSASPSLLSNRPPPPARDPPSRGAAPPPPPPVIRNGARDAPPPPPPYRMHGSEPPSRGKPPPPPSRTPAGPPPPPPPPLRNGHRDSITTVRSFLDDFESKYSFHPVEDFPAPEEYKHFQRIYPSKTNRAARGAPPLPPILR
UniProt A6NGB9: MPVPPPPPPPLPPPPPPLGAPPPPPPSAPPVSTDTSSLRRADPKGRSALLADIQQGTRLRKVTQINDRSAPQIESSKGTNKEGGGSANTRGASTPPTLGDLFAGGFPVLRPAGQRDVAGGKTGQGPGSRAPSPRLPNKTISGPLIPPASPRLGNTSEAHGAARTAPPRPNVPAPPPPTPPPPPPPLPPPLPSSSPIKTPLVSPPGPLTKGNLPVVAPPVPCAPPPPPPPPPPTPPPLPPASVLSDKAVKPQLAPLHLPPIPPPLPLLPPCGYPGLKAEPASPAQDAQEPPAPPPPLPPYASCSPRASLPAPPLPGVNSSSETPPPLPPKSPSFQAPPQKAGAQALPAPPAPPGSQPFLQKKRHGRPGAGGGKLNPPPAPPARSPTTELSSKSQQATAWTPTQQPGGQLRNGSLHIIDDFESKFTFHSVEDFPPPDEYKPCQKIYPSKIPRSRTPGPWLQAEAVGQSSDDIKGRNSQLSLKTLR
UniProt Q9H1Z4: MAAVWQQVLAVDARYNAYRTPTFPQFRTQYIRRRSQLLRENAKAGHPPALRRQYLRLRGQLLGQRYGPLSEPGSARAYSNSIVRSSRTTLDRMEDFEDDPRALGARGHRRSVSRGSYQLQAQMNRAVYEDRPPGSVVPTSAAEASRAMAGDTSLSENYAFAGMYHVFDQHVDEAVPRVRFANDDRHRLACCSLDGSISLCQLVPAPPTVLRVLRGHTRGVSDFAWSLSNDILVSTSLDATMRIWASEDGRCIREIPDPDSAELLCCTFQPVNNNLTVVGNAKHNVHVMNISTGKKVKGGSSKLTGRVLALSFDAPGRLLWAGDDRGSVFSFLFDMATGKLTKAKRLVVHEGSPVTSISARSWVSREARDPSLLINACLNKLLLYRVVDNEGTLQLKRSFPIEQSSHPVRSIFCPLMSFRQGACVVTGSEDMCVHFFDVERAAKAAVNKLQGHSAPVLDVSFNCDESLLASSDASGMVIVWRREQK
UniProt Q9H270: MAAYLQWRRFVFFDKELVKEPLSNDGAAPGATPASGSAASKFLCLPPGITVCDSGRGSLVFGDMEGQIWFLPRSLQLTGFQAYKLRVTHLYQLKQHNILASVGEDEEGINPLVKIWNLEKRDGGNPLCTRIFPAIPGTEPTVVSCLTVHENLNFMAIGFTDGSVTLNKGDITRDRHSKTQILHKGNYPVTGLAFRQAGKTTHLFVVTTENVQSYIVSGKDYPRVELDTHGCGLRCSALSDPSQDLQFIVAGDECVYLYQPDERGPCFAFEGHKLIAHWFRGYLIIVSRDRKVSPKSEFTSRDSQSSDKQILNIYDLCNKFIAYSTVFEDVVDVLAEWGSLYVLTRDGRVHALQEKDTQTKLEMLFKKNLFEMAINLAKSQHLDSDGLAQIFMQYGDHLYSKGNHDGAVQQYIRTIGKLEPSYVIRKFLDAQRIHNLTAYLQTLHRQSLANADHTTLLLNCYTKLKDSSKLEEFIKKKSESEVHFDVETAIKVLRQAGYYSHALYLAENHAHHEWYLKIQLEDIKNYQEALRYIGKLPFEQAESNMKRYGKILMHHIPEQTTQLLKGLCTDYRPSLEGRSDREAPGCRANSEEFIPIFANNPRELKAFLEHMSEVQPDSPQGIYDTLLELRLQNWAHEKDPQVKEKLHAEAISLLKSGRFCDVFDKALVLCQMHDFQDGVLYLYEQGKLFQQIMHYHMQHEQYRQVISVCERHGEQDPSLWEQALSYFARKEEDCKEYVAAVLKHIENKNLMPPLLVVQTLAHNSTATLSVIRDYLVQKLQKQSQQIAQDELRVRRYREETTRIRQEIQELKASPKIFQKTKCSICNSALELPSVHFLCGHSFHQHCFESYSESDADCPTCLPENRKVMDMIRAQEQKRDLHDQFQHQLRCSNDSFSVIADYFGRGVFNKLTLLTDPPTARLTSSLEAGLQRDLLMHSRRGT
UniProt Q2M389: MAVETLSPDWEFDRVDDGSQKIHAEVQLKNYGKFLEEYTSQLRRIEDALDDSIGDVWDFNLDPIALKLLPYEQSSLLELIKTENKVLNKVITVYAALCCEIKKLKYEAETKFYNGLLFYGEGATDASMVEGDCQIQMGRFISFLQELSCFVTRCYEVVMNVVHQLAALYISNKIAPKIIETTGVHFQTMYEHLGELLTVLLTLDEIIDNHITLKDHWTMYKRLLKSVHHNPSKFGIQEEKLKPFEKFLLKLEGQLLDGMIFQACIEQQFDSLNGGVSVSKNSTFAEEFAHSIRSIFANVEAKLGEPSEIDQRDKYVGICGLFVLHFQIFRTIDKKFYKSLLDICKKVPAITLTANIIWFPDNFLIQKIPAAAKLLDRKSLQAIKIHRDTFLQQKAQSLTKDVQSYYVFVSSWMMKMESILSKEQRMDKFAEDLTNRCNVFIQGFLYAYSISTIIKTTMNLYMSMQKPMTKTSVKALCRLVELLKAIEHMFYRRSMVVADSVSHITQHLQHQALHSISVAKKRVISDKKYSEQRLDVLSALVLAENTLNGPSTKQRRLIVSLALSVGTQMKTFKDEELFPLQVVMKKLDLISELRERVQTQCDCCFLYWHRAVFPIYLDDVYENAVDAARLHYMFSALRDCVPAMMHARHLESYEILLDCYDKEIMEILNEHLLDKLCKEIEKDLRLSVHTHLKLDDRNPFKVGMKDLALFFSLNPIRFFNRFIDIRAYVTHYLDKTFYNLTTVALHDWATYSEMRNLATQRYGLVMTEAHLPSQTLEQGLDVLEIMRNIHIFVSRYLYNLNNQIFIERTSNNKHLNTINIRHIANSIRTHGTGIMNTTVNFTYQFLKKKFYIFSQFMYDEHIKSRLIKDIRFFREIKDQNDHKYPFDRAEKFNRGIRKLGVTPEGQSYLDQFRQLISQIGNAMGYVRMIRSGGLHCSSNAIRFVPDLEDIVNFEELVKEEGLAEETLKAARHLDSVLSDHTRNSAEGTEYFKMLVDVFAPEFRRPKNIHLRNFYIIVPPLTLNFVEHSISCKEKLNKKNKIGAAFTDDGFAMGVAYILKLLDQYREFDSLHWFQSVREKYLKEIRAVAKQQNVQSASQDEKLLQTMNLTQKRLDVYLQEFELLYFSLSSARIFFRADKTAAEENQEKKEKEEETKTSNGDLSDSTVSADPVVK
UniProt Q96HA8: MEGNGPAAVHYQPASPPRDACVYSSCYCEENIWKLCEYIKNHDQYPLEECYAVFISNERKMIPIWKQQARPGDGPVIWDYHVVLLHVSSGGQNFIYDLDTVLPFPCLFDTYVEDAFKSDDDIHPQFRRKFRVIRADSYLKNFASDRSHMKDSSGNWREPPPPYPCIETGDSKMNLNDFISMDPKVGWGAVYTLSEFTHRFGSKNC

Tests used:
Assay in all cases: log2 fold change, soluble protein after heating vs DMSO (PISA); higher = thermal stabilisation; K562 lysate, 10 uM; active = over 0.2 and 3.5 SD of the protein, either way, in both replicates (recomputed)
lapatinib = compound: CS(=O)(=O)CCNCc1ccc(-c2ccc3ncnc(Nc4ccc(OCc5cccc(F)c5)c(Cl)c4)c3c2)o1 [lapatinib]
Summary of the method: (§1)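 Quantification was by TMTpro 16plex LC-MS/MS with equalised channel sums, applied to the supernatant after 21,000xg for 90 min. Samples were crude K562 extract at 1 mg/mL protein in PBS pH 7.4 with 1 mM MgCl2, treated with 10 μM compound for 30 min, heated for 3 min across 48°C-58°C, pooled and brought to 0.5% NP-40 at 4°C. Values are log-two fold changes in thermal stability relative to solvent controls, from duplicates.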

pictilisib = compound: CS(=O)(=O)N1CCN(Cc2cc3nc(-c4cccc5[nH]ncc45)nc(N4CCOCC4)c3s2)CC1 [pictilisib]
Summary of the method: as §1

crizotinib = compound: C[C@@H](Oc1cc(-c2cnn(C3CCNCC3)c2)cnc1N)c1c(Cl)ccc(F)c1Cl [crizotinib]
Summary of the method: as §1

[1] = compound: C[C@H](C1=CC=C(C=C1)C(=O)NC2=C3C=CNC3=NC=C2)N
Summary of the method: as §1

duvelisib = compound: C[C@H](Nc1ncnc2nc[nH]c12)c1cc2cccc(Cl)c2c(=O)n1-c1ccccc1 [duvelisib]
Summary of the method: as §1

gandotinib = compound: Cc1cc(Nc2cc(CN3CCOCC3)c3nc(C)c(Cc4ccc(Cl)cc4F)n3n2)n[nH]1 [gandotinib]
Summary of the method: as §1

tozasertib = compound: Cc1cc(Nc2cc(N3CCN(C)CC3)nc(Sc3ccc(NC(=O)C4CC4)cc3)n2)n[nH]1 [tozasertib]
Summary of the method: as §1

doramapimod = compound: Cc1ccc(-n2nc(C(C)(C)C)cc2NC(=O)Nc2ccc(OCCN3CCOCC3)c3ccccc23)cc1 [doramapimod]
Summary of the method: as §1

bafetinib = compound: Cc1ccc(NC(=O)c2ccc(CN3CC[C@H](N(C)C)C3)c(C(F)(F)F)c2)cc1Nc1nccc(-c2cncnc2)n1 [bafetinib]
Summary of the method: as §1

[2] = compound: Cc1cccc(CC(=O)N2CCc3c2ccc(-c2cn(C)c4ncnc(N)c24)c3F)n1
Summary of the method: as §1

nilotinib = compound: Cc1cn(-c2cc(NC(=O)c3ccc(C)c(Nc4nccc(-c5cccnc5)n4)c3)cc(C(F)(F)F)c2)cn1 [nilotinib]
Summary of the method: as §1

[3] = compound: Cc1nc(Nc2n[nH]c3c2CN(C(=O)N[C@H](CN(C)C)c2ccccc2)C3(C)C)c2sccc2n1
Summary of the method: as §1

dasatinib = compound: Cc1nc(Nc2ncc(C(=O)Nc3c(C)cccc3Cl)s2)cc(N2CCN(CCO)CC2)n1 [dasatinib]
Summary of the method: as §1

[4] = compound: Cc1ncc(-c2ccnc(Nc3ccc(S(C)(=O)=O)cc3)n2)n1C(C)C
Summary of the method: as §1

[5] = compound: Cn1cc(-c2ccc3c(c2)CCN3C(=O)Cc2cccc(C(F)(F)F)c2)c2c(N)ncnc21
Summary of the method: as §1

quisinostat = compound: Cn1cc(CNCC2CCN(c3ncc(C(=O)NO)cn3)CC2)c2ccccc21 [quisinostat]
Summary of the method: as §1

tipifarnib = compound: Cn1cncc1[C@@](N)(c1ccc(Cl)cc1)c1ccc2c(c1)c(-c1cccc(Cl)c1)cc(=O)n2C [tipifarnib]
Summary of the method: as §1

[6] = compound: NC(=O)Nc1cc(-c2cccc(F)c2)sc1C(=O)N[C@H]1CCCNC1
Summary of the method: as §1

[7] = compound: NC(=O)c1cnc(N[C@@H]2CCCC[C@@H]2N)nc1Nc1cccc(-n2nccn2)c1
Summary of the method: as §1

[8] = compound: NC1(c2ccc(-c3nc4ccn5c(=O)[nH]nc5c4cc3-c3ccccc3)cc2)CCC1
Summary of the method: as §1

Measured: log2 fold change

XPNPEP1 isoform 3 (UniProt Q9NQW7)
inactive: lapatinib -0.017 | pictilisib -0.02 | crizotinib -0.008 | [1] 0.001 | duvelisib 0.049 | gandotinib 0.002 | tozasertib -0.024 | doramapimod -0.003 | bafetinib -0.021 | [2] 0.018 | nilotinib 0.022 | [3] 0.016 | dasatinib -0.049 | [4] -0.004 | [5] 0.014 | quisinostat 0.024 | tipifarnib 0.011 | [6] 0.007 | [7] -0.005 | [8] -0.023

WDR20 isoform 7 (UniProt Q8TBZ3)
inactive: lapatinib 0.015 | pictilisib -0.006 | crizotinib -0.069 | duvelisib 0.043 | gandotinib -0.009 | tozasertib 0 | doramapimod -0.022 | bafetinib 0.07 | [2] 0.081 | nilotinib -0.001 | [3] 0.029 | dasatinib 0.055 | [4] -0.229 | [5] 0.038 | quisinostat 0.027 | tipifarnib -0.174 | [6] 0.009 | [7] -0.026 | [8] -0.042
active: [1] -0.416

WASL (UniProt O00401)
inactive: lapatinib -0.031 | pictilisib 0.021 | crizotinib -0.034 | [1] 0.093 | duvelisib 0.011 | gandotinib -0.04 | tozasertib 0.06 | doramapimod 0.051 | bafetinib 0.01 | [2] -0.08 | nilotinib -0.055 | [3] 0.031 | dasatinib 0.008 | [4] -0.008 | [5] 0.04 | quisinostat -0.065 | tipifarnib 0.121 | [6] 0.022 | [7] 0.026 | [8] -0.008

WIPF2 (UniProt Q8TF74)
inactive: lapatinib -0.026 | pictilisib -0.009 | crizotinib -0.009 | [1] -0.088 | duvelisib 0.034 | gandotinib 0.029 | tozasertib -0.05 | doramapimod 0 | bafetinib -0.061 | [2] -0.007 | nilotinib -0.085 | [3] 0.029 | dasatinib 0.027 | [4] -0.034 | [5] -0.03 | quisinostat 0.02 | tipifarnib 0.121 | [6] 0.017 | [7] 0 | [8] -0.015

WIPF3 (UniProt A6NGB9)
inactive: lapatinib 0.008 | pictilisib 0.004 | crizotinib 0.019 | [1] -0.071 | duvelisib -0.048 | gandotinib 0.054 | tozasertib -0.019 | doramapimod -0.005 | bafetinib 0.015 | [2] 0.049 | nilotinib 0.041 | [3] -0.032 | dasatinib -0.045 | [4] 0.025 | [5] 0.036 | quisinostat 0.007 | tipifarnib 0.009 | [6] -0.006 | [7] -0.004 | [8] 0.014

WDR13 (UniProt Q9H1Z4)
inactive: lapatinib -0.016 | pictilisib -0.052 | crizotinib 0.035 | [1] -0.031 | duvelisib -0.023 | gandotinib -0.044 | tozasertib -0.005 | doramapimod -0.031 | bafetinib -0.015 | [2] 0.011 | nilotinib -0.004 | [3] 0.015 | dasatinib -0.02 | [4] -0.063 | [5] 0.064 | quisinostat 0.046 | tipifarnib -0.009 | [6] 0.009 | [7] -0.001 | [8] 0.018

VPS11 (UniProt Q9H270)
inactive: lapatinib -0.025 | pictilisib -0.027 | crizotinib -0.029 | [1] -0.008 | duvelisib -0.04 | gandotinib -0.083 | tozasertib 0.024 | doramapimod 0.039 | bafetinib -0.077 | [2] 0.065 | nilotinib -0.007 | [3] -0.008 | dasatinib -0.003 | [4] -0.018 | [5] -0.002 | quisinostat -0.055 | tipifarnib -0.002 | [6] 0.06 | [7] -0.003 | [8] 0.003

WDTC1 (UniProt Q8N5D0)
inactive: lapatinib 0.025 | pictilisib -0.031 | crizotinib 0 | [1] -0.024 | duvelisib 0.072 | gandotinib 0.025 | tozasertib 0 | doramapimod -0.063 | bafetinib -0.065 | [2] 0.046 | nilotinib 0.054 | [3] -0.053 | dasatinib -0.054 | [4] -0.039 | [5] 0.004 | quisinostat -0.003 | tipifarnib 0.007 | [6] 0.005 | [7] 0.013 | [8] -0.05

VPS35L (UniProt Q7Z3J2)
inactive: lapatinib -0.016 | pictilisib -0.003 | crizotinib -0.028 | [1] -0.025 | duvelisib 0.02 | gandotinib -0.029 | tozasertib 0.026 | doramapimod 0.02 | bafetinib -0.052 | [2] 0.065 | nilotinib -0.019 | [3] -0.006 | dasatinib -0.088 | [4] 0.022 | [5] 0.008 | quisinostat -0.046 | tipifarnib 0.03 | [6] 0.043 | [7] 0.001 | [8] -0.044

VPS35, A0A1W2PP10
inactive: lapatinib 0.244 | pictilisib -0.118 | crizotinib -0.206 | [1] 0.07 | gandotinib 0.119 | doramapimod -0.089 | bafetinib 0.121 | [2] -0.03 | nilotinib -0.052 | [3] -0.03 | [4] -0.031 | quisinostat -0.064 | tipifarnib -0.149 | [6] -0.018 | [7] 0.051 | [8] -0.154

WASHC4 (UniProt Q2M389)
inactive: lapatinib 0 | pictilisib -0.039 | crizotinib -0.045 | [1] -0.01 | duvelisib 0.04 | gandotinib 0.017 | tozasertib 0.005 | doramapimod 0.049 | bafetinib -0.068 | [2] 0.033 | nilotinib 0.013 | [3] 0 | dasatinib -0.001 | [4] 0.021 | [5] 0.041 | quisinostat -0.038 | tipifarnib -0.005 | [6] 0.003 | [7] 0.006 | [8] -0.049

WDYHV1 (UniProt Q96HA8)
inactive: lapatinib 0.041 | crizotinib 0.04 | duvelisib 0.032 | tozasertib 0.095 | doramapimod -0.014 | nilotinib 0.074 | [3] 0.076 | dasatinib 0.031 | [4] 0.081 | [5] 0.029 | quisinostat 0.154 | tipifarnib -0.105 | [6] 0.063 | [7] 0.059 | [8] -0.053
